This is one part of the list.
Compound: COc1ccc(Cn2ccc3ccc(C(=O)NO)cc32)cc1
Experiment: dose-dependent thermal stabilisation call (2D-TPP, DLPTP, 10% FDR) (binary (1 = stabilised)); higher = stabilised by the compound
Details: system: HL-60 intact cells; concentration range 0.04-10 µM

Sequences of proteins named here, by UniProt entry; tags and fusion partners are left off. A change or cut given only in a name is not applied to a line headed by its entry.
UniProt Q8N5K1: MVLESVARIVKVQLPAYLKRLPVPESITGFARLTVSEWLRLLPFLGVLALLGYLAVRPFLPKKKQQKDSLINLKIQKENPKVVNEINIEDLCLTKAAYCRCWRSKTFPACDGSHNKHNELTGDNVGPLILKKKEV
UniProt Q9Y2V7: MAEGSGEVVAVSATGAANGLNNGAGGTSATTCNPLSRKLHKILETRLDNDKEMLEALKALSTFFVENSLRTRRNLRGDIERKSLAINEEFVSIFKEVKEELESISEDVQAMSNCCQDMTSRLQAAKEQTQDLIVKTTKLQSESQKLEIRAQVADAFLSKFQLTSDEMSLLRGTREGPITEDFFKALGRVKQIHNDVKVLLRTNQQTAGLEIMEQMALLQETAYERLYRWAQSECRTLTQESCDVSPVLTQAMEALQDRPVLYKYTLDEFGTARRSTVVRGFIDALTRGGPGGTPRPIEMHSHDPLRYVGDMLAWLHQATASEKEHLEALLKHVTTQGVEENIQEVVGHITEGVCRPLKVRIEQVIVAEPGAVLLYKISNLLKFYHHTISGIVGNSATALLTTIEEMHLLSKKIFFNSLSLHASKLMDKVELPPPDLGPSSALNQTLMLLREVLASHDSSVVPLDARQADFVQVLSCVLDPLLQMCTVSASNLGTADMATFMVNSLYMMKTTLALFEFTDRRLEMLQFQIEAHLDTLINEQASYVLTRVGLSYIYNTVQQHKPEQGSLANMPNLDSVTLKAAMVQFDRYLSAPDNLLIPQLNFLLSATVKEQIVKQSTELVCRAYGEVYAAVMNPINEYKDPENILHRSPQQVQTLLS
UniProt Q99832: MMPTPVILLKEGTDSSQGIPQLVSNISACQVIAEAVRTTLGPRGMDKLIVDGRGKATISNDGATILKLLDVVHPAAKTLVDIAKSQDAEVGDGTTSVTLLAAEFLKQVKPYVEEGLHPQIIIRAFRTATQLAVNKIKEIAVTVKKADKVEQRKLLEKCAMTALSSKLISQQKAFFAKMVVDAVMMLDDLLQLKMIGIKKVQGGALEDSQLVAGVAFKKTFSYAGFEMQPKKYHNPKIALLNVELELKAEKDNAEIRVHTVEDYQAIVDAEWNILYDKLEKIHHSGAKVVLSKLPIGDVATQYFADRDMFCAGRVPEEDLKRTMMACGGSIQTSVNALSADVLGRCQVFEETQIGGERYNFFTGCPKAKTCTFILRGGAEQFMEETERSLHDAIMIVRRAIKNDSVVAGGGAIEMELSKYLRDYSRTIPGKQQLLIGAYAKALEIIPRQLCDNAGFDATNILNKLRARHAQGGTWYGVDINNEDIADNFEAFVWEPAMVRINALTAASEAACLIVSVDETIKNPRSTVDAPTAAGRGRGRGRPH
UniProt Q53EZ4: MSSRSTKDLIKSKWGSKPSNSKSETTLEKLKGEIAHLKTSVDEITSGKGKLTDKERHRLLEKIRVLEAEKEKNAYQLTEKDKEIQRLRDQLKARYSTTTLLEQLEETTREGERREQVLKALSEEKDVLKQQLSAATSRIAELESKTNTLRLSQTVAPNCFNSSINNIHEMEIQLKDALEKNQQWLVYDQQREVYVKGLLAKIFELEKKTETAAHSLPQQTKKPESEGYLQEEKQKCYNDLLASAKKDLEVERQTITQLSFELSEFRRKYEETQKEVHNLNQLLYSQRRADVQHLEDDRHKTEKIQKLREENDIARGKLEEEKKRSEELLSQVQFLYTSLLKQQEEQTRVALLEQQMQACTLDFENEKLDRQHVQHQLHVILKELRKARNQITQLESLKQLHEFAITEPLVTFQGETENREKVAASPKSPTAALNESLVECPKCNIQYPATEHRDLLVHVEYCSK
UniProt Q9HC77: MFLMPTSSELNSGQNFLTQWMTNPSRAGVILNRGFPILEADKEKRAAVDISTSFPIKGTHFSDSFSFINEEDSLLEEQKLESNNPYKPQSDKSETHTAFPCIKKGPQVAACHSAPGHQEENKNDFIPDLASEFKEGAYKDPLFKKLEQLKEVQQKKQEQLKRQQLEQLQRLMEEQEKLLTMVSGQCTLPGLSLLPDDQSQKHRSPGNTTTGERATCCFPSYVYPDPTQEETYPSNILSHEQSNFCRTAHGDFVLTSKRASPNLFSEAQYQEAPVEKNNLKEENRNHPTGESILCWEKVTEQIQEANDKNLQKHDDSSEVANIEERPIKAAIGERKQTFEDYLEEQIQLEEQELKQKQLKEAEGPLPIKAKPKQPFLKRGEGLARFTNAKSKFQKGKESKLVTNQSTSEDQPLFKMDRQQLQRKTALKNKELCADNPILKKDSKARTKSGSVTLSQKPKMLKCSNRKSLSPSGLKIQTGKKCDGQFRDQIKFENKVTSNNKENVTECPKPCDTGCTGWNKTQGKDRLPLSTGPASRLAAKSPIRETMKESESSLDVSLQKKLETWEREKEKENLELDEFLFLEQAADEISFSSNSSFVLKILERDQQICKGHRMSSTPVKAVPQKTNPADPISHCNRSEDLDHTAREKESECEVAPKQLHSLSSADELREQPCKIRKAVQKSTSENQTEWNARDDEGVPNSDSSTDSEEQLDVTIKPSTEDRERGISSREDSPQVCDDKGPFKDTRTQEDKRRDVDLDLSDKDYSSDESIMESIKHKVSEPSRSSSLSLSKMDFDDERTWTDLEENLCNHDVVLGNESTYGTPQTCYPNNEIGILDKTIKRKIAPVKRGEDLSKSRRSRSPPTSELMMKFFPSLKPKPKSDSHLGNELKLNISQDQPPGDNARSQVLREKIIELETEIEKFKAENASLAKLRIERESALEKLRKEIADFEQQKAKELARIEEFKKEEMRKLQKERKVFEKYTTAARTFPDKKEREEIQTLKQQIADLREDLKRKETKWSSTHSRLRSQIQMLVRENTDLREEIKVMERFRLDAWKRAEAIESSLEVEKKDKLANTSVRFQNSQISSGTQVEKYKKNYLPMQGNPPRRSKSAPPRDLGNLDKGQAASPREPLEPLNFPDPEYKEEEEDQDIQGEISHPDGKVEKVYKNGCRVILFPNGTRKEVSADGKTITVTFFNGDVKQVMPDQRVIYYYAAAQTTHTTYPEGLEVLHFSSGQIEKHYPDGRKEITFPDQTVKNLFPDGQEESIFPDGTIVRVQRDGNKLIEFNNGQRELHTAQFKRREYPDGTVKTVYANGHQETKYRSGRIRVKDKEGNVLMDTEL
UniProt Q86XR8: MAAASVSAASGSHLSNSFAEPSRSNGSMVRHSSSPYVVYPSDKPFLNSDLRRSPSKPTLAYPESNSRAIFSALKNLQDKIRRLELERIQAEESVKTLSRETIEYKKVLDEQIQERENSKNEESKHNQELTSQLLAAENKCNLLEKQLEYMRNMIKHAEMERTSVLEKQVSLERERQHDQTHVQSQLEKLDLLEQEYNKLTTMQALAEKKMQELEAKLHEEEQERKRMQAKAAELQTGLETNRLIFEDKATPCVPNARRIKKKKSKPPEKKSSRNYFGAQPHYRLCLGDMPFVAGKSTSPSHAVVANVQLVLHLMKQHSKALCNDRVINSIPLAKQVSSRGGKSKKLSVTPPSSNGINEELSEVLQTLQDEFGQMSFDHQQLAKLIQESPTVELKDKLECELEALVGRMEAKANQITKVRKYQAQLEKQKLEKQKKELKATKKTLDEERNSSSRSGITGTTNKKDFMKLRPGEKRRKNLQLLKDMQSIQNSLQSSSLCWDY
UniProt A6NC98: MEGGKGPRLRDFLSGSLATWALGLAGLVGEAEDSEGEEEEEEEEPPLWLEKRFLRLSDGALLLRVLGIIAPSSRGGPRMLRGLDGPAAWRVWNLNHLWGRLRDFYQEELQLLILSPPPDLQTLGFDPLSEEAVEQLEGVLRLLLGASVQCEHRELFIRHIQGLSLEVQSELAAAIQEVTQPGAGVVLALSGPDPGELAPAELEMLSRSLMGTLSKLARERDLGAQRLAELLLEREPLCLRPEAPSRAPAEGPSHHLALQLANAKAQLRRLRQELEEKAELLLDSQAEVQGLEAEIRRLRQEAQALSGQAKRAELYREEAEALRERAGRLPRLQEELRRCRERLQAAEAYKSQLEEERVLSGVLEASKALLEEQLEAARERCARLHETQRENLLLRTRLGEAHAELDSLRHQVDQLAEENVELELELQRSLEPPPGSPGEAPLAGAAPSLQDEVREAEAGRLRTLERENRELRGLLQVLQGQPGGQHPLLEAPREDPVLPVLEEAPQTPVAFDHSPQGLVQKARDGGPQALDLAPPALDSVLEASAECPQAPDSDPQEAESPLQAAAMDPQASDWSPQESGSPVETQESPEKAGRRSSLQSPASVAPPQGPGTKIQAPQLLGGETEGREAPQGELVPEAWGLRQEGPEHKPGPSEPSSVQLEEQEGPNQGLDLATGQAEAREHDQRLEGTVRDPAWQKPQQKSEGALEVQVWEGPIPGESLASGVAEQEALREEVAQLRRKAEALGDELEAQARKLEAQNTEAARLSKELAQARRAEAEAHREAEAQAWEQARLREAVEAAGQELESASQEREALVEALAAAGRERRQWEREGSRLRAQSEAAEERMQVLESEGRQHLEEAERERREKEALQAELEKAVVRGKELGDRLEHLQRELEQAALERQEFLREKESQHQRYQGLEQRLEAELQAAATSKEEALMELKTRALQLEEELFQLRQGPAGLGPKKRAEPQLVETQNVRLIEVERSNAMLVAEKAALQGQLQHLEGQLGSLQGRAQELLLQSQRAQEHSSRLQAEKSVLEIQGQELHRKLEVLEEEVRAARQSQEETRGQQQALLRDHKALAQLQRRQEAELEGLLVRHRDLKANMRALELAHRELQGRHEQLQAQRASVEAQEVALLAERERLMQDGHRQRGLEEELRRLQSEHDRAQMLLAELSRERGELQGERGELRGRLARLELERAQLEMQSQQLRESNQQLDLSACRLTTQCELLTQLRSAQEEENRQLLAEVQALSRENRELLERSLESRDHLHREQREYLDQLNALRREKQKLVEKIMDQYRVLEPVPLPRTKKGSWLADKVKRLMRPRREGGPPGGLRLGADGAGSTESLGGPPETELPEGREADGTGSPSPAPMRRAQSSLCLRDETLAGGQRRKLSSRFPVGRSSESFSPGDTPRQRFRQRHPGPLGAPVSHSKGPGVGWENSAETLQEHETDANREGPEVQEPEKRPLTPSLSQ
UniProt Q8NE86: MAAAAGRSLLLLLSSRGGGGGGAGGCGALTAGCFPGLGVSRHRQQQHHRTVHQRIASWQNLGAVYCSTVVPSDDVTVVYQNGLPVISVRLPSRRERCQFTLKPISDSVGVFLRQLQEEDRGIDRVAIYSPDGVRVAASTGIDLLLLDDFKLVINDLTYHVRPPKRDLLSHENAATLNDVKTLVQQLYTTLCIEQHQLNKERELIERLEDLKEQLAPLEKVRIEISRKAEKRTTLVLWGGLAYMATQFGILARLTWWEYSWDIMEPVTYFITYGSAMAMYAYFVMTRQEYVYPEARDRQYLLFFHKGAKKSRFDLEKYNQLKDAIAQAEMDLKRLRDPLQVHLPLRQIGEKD
UniProt O14757: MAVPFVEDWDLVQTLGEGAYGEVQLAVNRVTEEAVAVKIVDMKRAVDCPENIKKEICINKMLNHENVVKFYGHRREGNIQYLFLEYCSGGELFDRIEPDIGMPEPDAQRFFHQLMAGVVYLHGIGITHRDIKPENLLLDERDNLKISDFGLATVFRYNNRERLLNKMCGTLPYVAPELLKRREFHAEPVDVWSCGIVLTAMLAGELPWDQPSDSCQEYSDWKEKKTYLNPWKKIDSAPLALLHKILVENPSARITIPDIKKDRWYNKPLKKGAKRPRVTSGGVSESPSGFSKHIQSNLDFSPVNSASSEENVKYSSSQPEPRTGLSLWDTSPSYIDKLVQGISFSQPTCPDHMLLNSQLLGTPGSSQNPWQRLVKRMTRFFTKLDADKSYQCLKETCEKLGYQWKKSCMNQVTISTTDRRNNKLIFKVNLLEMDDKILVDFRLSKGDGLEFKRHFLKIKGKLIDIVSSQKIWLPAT
UniProt Q6FI81: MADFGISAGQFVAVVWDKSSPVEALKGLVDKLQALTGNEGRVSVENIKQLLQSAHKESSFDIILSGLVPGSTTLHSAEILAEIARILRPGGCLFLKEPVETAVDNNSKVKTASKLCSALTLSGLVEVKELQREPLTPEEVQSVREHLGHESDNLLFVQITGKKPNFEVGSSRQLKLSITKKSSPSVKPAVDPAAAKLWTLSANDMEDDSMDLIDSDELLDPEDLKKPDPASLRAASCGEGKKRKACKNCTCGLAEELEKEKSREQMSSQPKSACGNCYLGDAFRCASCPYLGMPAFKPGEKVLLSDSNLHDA
UniProt Q9Y2S6, whole entry: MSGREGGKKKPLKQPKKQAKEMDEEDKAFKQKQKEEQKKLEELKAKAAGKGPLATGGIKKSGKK
UniProt Q99618: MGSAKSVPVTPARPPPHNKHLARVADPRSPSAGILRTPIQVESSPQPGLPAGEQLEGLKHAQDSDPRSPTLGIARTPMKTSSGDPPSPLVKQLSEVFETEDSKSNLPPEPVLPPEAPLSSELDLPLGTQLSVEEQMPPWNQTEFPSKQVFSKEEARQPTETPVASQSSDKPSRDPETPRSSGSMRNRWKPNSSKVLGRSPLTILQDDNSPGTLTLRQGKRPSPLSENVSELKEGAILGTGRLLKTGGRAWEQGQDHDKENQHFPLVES

Target | dose-dependent thermal stabilisation call
CISD2 (UniProt Q8N5K1) | inactive: 0
CHEK2 (UniProt O96017) | inactive: 0
CHD6 (UniProt Q8TD26) | inactive: 0
COG6 (UniProt Q9Y2V7) | inactive: 0
CHKB (UniProt Q9Y259) | inactive: 0
CENPF (UniProt P49454) | inactive: 0
CCT7 (UniProt Q99832) | inactive: 0
CCNH (UniProt P51946) | inactive: 0
CNNM4 (UniProt Q6P4Q7) | inactive: 0
CECR5 (UniProt Q9BXW7) | inactive: 0
CLEC12A (UniProt Q5QGZ9) | inactive: 0
CEP55 (UniProt Q53EZ4) | inactive: 0
CENPJ (UniProt Q9HC77) | inactive: 0
CCDC90A (UniProt Q96AQ8) | inactive: 0
CGREF1 (UniProt Q99674) | inactive: 0
CEP57 (UniProt Q86XR8) | inactive: 0
CEP250 (UniProt Q9BV73) | inactive: 0
CCDC88B (UniProt A6NC98) | inactive: 0
CHMP2A (UniProt O43633) | inactive: 0

Target | dose-dependent thermal stabilisation call
CCDC109A (UniProt Q8NE86) | inactive: 0
CHEK1 (UniProt O14757) | inactive: 0
CEBPZ (UniProt Q03701) | inactive: 0
COMMD2 (UniProt Q86X83) | inactive: 0
CEP192 (UniProt Q8TEP8) | inactive: 0
CIAPIN1 (UniProt Q6FI81) | inactive: 0
CDC42BPA (UniProt Q5VT25) | inactive: 0
CCDC72 (UniProt Q9Y2S6) | inactive: 0
CCBL1 (UniProt Q16773) | inactive: 0
CLSPN (UniProt Q9HAW4) | inactive: 0
CDCA3 (UniProt Q99618) | inactive: 0
CEP135 (UniProt Q66GS9) | inactive: 0
CD97 (UniProt P48960) | inactive: 0
CCDC53 (UniProt Q9Y3C0) | inactive: 0
CNO (UniProt Q9NUP1) | inactive: 0
CDKN2AIP (UniProt Q9NXV6) | inactive: 0
CDKN2AIPNL (UniProt Q96HQ2) | inactive: 0
CCDC97 (UniProt Q96F63) | inactive: 0
CEP290 (UniProt O15078) | inactive: 0

Two successive records from above:
Target | dose-dependent thermal stabilisation call
CDKN2AIP (UniProt Q9NXV6) | inactive: 0
CDKN2AIPNL (UniProt Q96HQ2) | inactive: 0
